One molecule from publication PMC8301015, “Atypical Bacilliredoxin AbxC Plays a Role in Responding to Oxidative Stress in Radiation-Resistant Bacterium Deinococcus radiodurans” (Antioxidants, 2021) can be followed below.

The target of this assay is AbxC (atypical BrxC; DR_1832), C-terminal His x 6 tag (Deinococcus radiodurans) (UniProt Q9RTD3). Kind of assay: non-reducing SDS-PAGE; as a1, with the disulfide reducing agent DTT added for AbxC reduction; both purified.

No constants are given. Whether binding was seen depends on the method and setting. Tags and fused reporters may be left off the sequences shown.

B1: AbxC (atypical BrxC; DR_1832), C-terminal His x 6 tag (enzyme, Deinococcus radiodurans, UniProt Q9RTD3 1-211, looked up)
chain: MTQGQDQVLSPLTTPDEVDQFLKDYPLAAVFKAGTCHKTMQGFGVLETFLQRYELPVGFIRVVDWRPASNHVAELTGLTHHSPQFILFKDGQAQYEVNNWDITPEALGPVFEQQVPQRSGAAQVDAGDSVEPYRQLMQAYLAGQLSDWAFQDQYVTMFRDDASLRSQREFELLSRLFGDPDAYHGGLHQLGAPQDRGDLKARVQSVLDQLG
notes: AbxC (DR_1832), Deinococcus radiodurans R1; monomer 23.7 kDa; single cysteine Cys36; also called putative homolog of BrxC (YtxJ); source: E. coli BL21-CodonPlus (DE3)-RP, purified (Ni-NTA, Superdex 75HR)
For the molecule B1, the binding result is “no binding (condition: with DTT)”.
